PubChem BioAssay AID1259424 – University of Nebraska Medical Center – 2018

Aim: 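Seek colon cancer survival genes behaving like KSR1, using a six-gene signature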 (primary screen)
Cell system: human HCT116 colon cancer cells
Reagents: siRNA pool against human genes, 50 nM
Measurement: 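Log2 levels of six mRNAs (branched-DNA multiplex), adjusted by two reference genes and the non-targeting median, then scored against the average KSR1 knockdown pattern as Pearson r and euclidean distance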
Reading the numbers: mean correlation with KSR1 profile: higher = expression change more like KSR1 knockdown; mean distance from KSR1 profile: higher = expression change less like KSR1 knockdown
Here is a random part of about 14,000 deposited reagents. 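Higher correlation or smaller distance means closer resemblance to KSR1 loss; control wells, including KSR1 knockdowns, recur on many plates.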 Further read-outs or replicates are left out here. Not given: the time to read-out.

FH (GeneID 2271) scored mean correlation with KSR1 profile 0.355; mean distance from KSR1 profile 1.11. For HAVCR1 (GeneID 26762) the deposit lists mean correlation with KSR1 profile -0.303; mean distance from KSR1 profile 1.66. PHLDA2 (GeneID 7262) gave mean correlation with KSR1 profile 0.228; mean distance from KSR1 profile 3.66. Against ELF4 (GeneID 2000), the entry reads mean correlation with KSR1 profile 0.12; mean distance from KSR1 profile 1.6. Depletion of SPATS2L (GeneID 26010) came out at: mean correlation with KSR1 profile -0.62; mean distance from KSR1 profile 3.21. Knock-down of FOSL2 (GeneID 2355) resulted in: mean correlation with KSR1 profile 0.875; mean distance from KSR1 profile 0.977.

Silencing of FUT1 (GeneID 2523) gave: mean correlation with KSR1 profile -0.161; mean distance from KSR1 profile 2.34. PACSIN3 (GeneID 29763) scored mean correlation with KSR1 profile 0.745; mean distance from KSR1 profile 0.871. Depletion of LIG3 (GeneID 3980) gave: mean correlation with KSR1 profile 0.129; mean distance from KSR1 profile 1.71. With knock-down of TSPY2 (GeneID 64591), the screen gave mean correlation with KSR1 profile -0.415; mean distance from KSR1 profile 2.75. After knock-down of VWA7 (GeneID 80737), the record shows mean correlation with KSR1 profile 0.96; mean distance from KSR1 profile 0.923. After knock-down of MCM10 (GeneID 55388), the record shows mean correlation with KSR1 profile -0.275; mean distance from KSR1 profile 3.41.

Knock-down of NAPB (GeneID 63908) gave: mean correlation with KSR1 profile 0.0482; mean distance from KSR1 profile 2.07. Silencing of EPHB2 (GeneID 2048) resulted in: mean correlation with KSR1 profile 0.0633; mean distance from KSR1 profile 3.17. After knock-down of CCL19 (GeneID 6363), the screen gave mean correlation with KSR1 profile 0.28; mean distance from KSR1 profile 1.25. Against SPTA1 (GeneID 6708), the values are mean correlation with KSR1 profile -0.092; mean distance from KSR1 profile 1.66. With knock-down of LOXL3 (GeneID 84695), the record shows mean correlation with KSR1 profile -0.389; mean distance from KSR1 profile 2.37. ST3GAL2 (GeneID 6483) showed mean correlation with KSR1 profile -0.627; mean distance from KSR1 profile 1.75.

Knock-down of SLC25A33 (GeneID 84275) came out at: mean correlation with KSR1 profile 0.125; mean distance from KSR1 profile 2.23. OR2C1 (GeneID 4993) gave mean correlation with KSR1 profile 0.79; mean distance from KSR1 profile 1.04. After knock-down of LRRC20 (GeneID 55222) the results were mean correlation with KSR1 profile -0.631; mean distance from KSR1 profile 3.46. Depletion of MIR503HG (GeneID 84848) came out at: mean correlation with KSR1 profile 0.0947; mean distance from KSR1 profile 2.55. Against SLITRK6 (GeneID 84189) the deposit lists mean correlation with KSR1 profile 0.564; mean distance from KSR1 profile 2.17. Against HYAL2 (GeneID 8692) the deposit lists mean correlation with KSR1 profile -0.0273; mean distance from KSR1 profile 1.79.

With knock-down of ADNP2 (GeneID 22850) the results were mean correlation with KSR1 profile 0.574; mean distance from KSR1 profile 1.89. With knock-down of CYP2D6 (GeneID 1565), the screen gave mean correlation with KSR1 profile -0.123; mean distance from KSR1 profile 3.72. Against PEA15 (GeneID 8682), the values are mean correlation with KSR1 profile -0.321; mean distance from KSR1 profile 2.07. After knock-down of CPT1B (GeneID 1375), the record shows mean correlation with KSR1 profile 0.696; mean distance from KSR1 profile 1.25.

Laid out differently: 4 of the entries above.
{"gene knocked down": "FH (GeneID 2271)", "mean correlation with KSR1 profile": 0.355, "mean distance from KSR1 profile": 1.11}
{"gene knocked down": "HAVCR1 (GeneID 26762)", "mean correlation with KSR1 profile": -0.303, "mean distance from KSR1 profile": 1.66}
{"gene knocked down": "PHLDA2 (GeneID 7262)", "mean correlation with KSR1 profile": 0.228, "mean distance from KSR1 profile": 3.66}
{"gene knocked down": "ELF4 (GeneID 2000)", "mean correlation with KSR1 profile": 0.12, "mean distance from KSR1 profile": 1.6}
